According to paper PMC7819943, “Rice protein-binding microarrays: a tool to detect cis-acting elements near promoter regions in rice”:
This is one part of the list.

By UniProt entry, the sequences of proteins in these tests, tags left out.
UniProt Q0JBA9, entry or part of it: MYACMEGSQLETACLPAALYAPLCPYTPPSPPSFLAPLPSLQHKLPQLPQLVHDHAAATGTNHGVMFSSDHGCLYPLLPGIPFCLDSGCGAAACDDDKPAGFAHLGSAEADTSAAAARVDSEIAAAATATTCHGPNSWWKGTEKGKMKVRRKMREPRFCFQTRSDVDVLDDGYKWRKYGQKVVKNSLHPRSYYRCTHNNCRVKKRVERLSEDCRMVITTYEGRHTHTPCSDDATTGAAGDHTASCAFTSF

What follows are sequences tested against OsWRKY34 (Oryza sativa, UniProt Q0JBA9 1-250) (assay: protein-binding microarray (RPBM); PBS, 2% BSA, 51.3 ng/ul salmon testes DNA, 50 uM zinc acetate, 200 nM TF, 25 C, 1 h; high values mean tight binding). Details: protein: recombinant; tags: N-terminal polyhistidine and DsRed monomer fusion (pET32a); label: CyDye5-dUTP incorporated in the synthesized complementary strand; 3' TTTTT single-stranded linker to array surface; dsDNA, one strand shown.
In short: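 The binding signal for each feature is its fluorescence intensity in arbitrary units. An Axon 4000B scanner was used to read a custom Agilent array that had been made double-stranded with Cy5-dUTP primer extension, blocked with 2% BSA, incubated at 25 °C for 1 h with 200 nM protein in PBS, 2% BSA, salmon testes DNA and 50 µM zinc acetate, and washed. The protein was an N-terminal polyhistidine–DsRed transcription factor fusion from E. coli BL21-CodonPlus, purified on Ni–NTA.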

| Sequence | binding signal |
| --- | --- |
| ATCCCCGGCGTGCCCCATCTCCGGCGGCTGCTTCCCCGCCCGGAGTCACCTAGTGCAG | 8120 fluorescence intensity (a.u.) |
| ATGTGGCTGACGAGGCTCTTTTGCTTTATTCTGTGGTGTGCGGAGTCACCTAGTGCAG | 9460 fluorescence intensity (a.u.) |
| CAGATGCTGGTCGGGTTCTTGTTTCTTTCACACCGTCGAACGGAGTCACCTAGTGCAG | 11400 fluorescence intensity (a.u.) |
| TTTATAGGCCATACACATATTTCACTCCACTCCATTCATACGGAGTCACCTAGTGCAG | 8520 fluorescence intensity (a.u.) |
| ACCAATATTTAAAGCACTCATTTTCTGGGTACAACATTATCGGAGTCACCTAGTGCAG | 9320 fluorescence intensity (a.u.) |
| TATATATATATATATTCATTAACATCAATATTAATGTGGGCGGAGTCACCTAGTGCAG | 10100 fluorescence intensity (a.u.) |
| GTCTCTCGTCCTGTCATCTTTCCCATCTTCGGTGACATCCCGGAGTCACCTAGTGCAG | 8270 fluorescence intensity (a.u.) |
| ATACTCCGACGTCTTACCTGCCGTTTGGGGCACCGACATGCGGAGTCACCTAGTGCAG | 9030 fluorescence intensity (a.u.) |
| TTTGGTTGCTTACACGAGAGATACGGTTTGGAAGAGATTTCGGAGTCACCTAGTGCAG | 8250 fluorescence intensity (a.u.) |
| CAATTCCGTTATTTTTATTTTTCATATTTTCACCGTTTGGCGGAGTCACCTAGTGCAG | 8840 fluorescence intensity (a.u.) |
| CTAAATTTGTAAACATTGTCTTGATATTTCTTTGTTTCCTCGGAGTCACCTAGTGCAG | 8040 fluorescence intensity (a.u.) |
| CTTATCTTTTTTTTTCTTGAACGAACATTTCATTTCTTATCGGAGTCACCTAGTGCAG | 8110 fluorescence intensity (a.u.) |
| TCTTCTGTAATTTCTGTCAATACTCCTTCCATGATTTGCTCGGAGTCACCTAGTGCAG | 10200 fluorescence intensity (a.u.) |
| GCCGCCCGTTTGGACACCTCTACCTACAACCAGCATTATCCGGAGTCACCTAGTGCAG | 8500 fluorescence intensity (a.u.) |
| AAACTAGATCCTACGGCGATTTTGACTCCGATTTTATCCGCGGAGTCACCTAGTGCAG | 8250 fluorescence intensity (a.u.) |
| TTTATAAGCGCTAGTGCCTTGCCAAGTCGACACGTGGCTCCGGAGTCACCTAGTGCAG | 8280 fluorescence intensity (a.u.) |
| GACACCTTGACGCCGTGGAGGAGGGCGGCGTTGACCCAGCCGGAGTCACCTAGTGCAG | 12100 fluorescence intensity (a.u.) |
| TTTTGCAAAGCATTCCTCGCGCTTTCAGCTAATTACGCATCGGAGTCACCTAGTGCAG | 8500 fluorescence intensity (a.u.) |
| CTGGGTTTGGCCTGTTAGTGTGAGTGGGCCTGGGTTATCACGGAGTCACCTAGTGCAG | 9010 fluorescence intensity (a.u.) |
| GCCATCCTCTTCTCTCTGCACCTTCCACACCACACACCTCCGGAGTCACCTAGTGCAG | 11100 fluorescence intensity (a.u.) |
| GTTTCCTGGTGGTCCAATATAATACCTAGATAAGGTGTATCGGAGTCACCTAGTGCAG | 8510 fluorescence intensity (a.u.) |

A run of entries from the list above, for reference:

| Sequence | binding signal |
| --- | --- |
| TTTATAGGCCATACACATATTTCACTCCACTCCATTCATACGGAGTCACCTAGTGCAG | 8520 fluorescence intensity (a.u.) |
| ACCAATATTTAAAGCACTCATTTTCTGGGTACAACATTATCGGAGTCACCTAGTGCAG | 9320 fluorescence intensity (a.u.) |

Following part.

| Sequence | binding signal |
| --- | --- |
| ACGCACACACGCACACCCTATCACTATGAGCACCTCCGGACGGAGTCACCTAGTGCAG | 10100 fluorescence intensity (a.u.) |
| CGCAACCCCAAGCACTGGTGTTCTACATTCAATCAATCATCGGAGTCACCTAGTGCAG | 38500 fluorescence intensity (a.u.) |
| TCCTCTTGTTTGTGGCAAAGATCTGGGTTCTTTTTTTTTCCGGAGTCACCTAGTGCAG | 9000 fluorescence intensity (a.u.) |
| TTCAGATCCATAGTATTAGGTTGTGTCTAATCTCTGTCCACGGAGTCACCTAGTGCAG | 8140 fluorescence intensity (a.u.) |
| AATCTTCTACCACTTAATTCTACCTACTTTCTTAATAACTCGGAGTCACCTAGTGCAG | 8690 fluorescence intensity (a.u.) |
| GGCGGTTTTTAAACTTATAGGGTTGTATCATCTAGGTCTTCGGAGTCACCTAGTGCAG | 8300 fluorescence intensity (a.u.) |
| TGCTATTGGAACCTTTTACTTGATATAATACAATATAATACGGAGTCACCTAGTGCAG | 8090 fluorescence intensity (a.u.) |
| GTCATCGACATGTGGTGGTGAATTTGCTTTTCTTTTTCTACGGAGTCACCTAGTGCAG | 8050 fluorescence intensity (a.u.) |
| TCCCACCTTCCGCTCGTTTTTCTTGAGCATATGCTTCTCACGGAGTCACCTAGTGCAG | 10100 fluorescence intensity (a.u.) |
| GCACACCGTAGCTAACTTCTCTCCTTCTGGGTATAAATATCGGAGTCACCTAGTGCAG | 8240 fluorescence intensity (a.u.) |
| ATGCTTCCCGTTGCAACGCACAGGTATTTTTGCTAGTAAACGGAGTCACCTAGTGCAG | 9980 fluorescence intensity (a.u.) |
| TCATGGGTGAGTCCACGCGTATTACATGATTTTTATTCCCCGGAGTCACCTAGTGCAG | 8300 fluorescence intensity (a.u.) |
| ATCACCCGCCTCGCCGCCCGCCCGCGCCGCGGCGGATCGACGGAGTCACCTAGTGCAG | 8550 fluorescence intensity (a.u.) |
| ATCTCGCCTCGCGTCCTCCGTCCGTCCTCGTCAAGTCGTCCGGAGTCACCTAGTGCAG | 14100 fluorescence intensity (a.u.) |
| CAACAATTCCTTCCTTCCTTCCTTTGTGGTTGACCAAATACGGAGTCACCTAGTGCAG | 9570 fluorescence intensity (a.u.) |
| CCTTGCCCGTGGCCGCACACCACACCATAGCCGGCAGCAGCGGAGTCACCTAGTGCAG | 10600 fluorescence intensity (a.u.) |
| CTAGCGCATATTAGCCGTTGGTTGGTTTAGTATACGTACGCGGAGTCACCTAGTGCAG | 10400 fluorescence intensity (a.u.) |
| CTTCCCATCTCGTTTCCACCGCACCTTTTTCCTCTCGGCGCGGAGTCACCTAGTGCAG | 10000 fluorescence intensity (a.u.) |
| GTCAGTTTCTCTTTTTTTTTCCCGTGAAATTAGGCGCTAGCGGAGTCACCTAGTGCAG | 8640 fluorescence intensity (a.u.) |
| CTCCGGCCTACATCTTCCTGCATTCATCACAACACCATCCCGGAGTCACCTAGTGCAG | 13000 fluorescence intensity (a.u.) |
| GCTTTTTCCATCGTGATTCCTTCACCGTAACGGGATCATCCGGAGTCACCTAGTGCAG | 9680 fluorescence intensity (a.u.) |
